The target in this test is T1, avi-tagged ISG65 E1125G on streptavidin agarose beads (T. brucei EATRO1125).
T1 sequence (chain, biotin on the AviTag): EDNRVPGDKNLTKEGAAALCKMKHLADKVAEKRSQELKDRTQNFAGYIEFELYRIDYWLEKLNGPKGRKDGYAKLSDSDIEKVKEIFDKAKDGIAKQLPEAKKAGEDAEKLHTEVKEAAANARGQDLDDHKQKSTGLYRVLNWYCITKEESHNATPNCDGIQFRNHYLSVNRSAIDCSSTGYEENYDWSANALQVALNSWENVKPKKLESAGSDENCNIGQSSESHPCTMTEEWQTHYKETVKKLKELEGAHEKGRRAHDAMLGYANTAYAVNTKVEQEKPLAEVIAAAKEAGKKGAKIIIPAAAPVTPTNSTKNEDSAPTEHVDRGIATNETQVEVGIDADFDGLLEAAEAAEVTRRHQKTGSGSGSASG
Briefly: pull-down; avi-tagged ISG65 E1125G on streptavidin agarose beads; serum of each species added by gravity flow; washed three times with HBS pH 7.4; eluted with 0.1 M sodium acetate pH 4, 500 mM NaCl; most intense band identified by trypsin-digest mass spectrometry; only the target purified.

Sequences of proteins named here, by UniProt entry; tags and fusion partners are left off. A change or cut given only in a name is not applied to a line headed by its entry.
UniProt P01024: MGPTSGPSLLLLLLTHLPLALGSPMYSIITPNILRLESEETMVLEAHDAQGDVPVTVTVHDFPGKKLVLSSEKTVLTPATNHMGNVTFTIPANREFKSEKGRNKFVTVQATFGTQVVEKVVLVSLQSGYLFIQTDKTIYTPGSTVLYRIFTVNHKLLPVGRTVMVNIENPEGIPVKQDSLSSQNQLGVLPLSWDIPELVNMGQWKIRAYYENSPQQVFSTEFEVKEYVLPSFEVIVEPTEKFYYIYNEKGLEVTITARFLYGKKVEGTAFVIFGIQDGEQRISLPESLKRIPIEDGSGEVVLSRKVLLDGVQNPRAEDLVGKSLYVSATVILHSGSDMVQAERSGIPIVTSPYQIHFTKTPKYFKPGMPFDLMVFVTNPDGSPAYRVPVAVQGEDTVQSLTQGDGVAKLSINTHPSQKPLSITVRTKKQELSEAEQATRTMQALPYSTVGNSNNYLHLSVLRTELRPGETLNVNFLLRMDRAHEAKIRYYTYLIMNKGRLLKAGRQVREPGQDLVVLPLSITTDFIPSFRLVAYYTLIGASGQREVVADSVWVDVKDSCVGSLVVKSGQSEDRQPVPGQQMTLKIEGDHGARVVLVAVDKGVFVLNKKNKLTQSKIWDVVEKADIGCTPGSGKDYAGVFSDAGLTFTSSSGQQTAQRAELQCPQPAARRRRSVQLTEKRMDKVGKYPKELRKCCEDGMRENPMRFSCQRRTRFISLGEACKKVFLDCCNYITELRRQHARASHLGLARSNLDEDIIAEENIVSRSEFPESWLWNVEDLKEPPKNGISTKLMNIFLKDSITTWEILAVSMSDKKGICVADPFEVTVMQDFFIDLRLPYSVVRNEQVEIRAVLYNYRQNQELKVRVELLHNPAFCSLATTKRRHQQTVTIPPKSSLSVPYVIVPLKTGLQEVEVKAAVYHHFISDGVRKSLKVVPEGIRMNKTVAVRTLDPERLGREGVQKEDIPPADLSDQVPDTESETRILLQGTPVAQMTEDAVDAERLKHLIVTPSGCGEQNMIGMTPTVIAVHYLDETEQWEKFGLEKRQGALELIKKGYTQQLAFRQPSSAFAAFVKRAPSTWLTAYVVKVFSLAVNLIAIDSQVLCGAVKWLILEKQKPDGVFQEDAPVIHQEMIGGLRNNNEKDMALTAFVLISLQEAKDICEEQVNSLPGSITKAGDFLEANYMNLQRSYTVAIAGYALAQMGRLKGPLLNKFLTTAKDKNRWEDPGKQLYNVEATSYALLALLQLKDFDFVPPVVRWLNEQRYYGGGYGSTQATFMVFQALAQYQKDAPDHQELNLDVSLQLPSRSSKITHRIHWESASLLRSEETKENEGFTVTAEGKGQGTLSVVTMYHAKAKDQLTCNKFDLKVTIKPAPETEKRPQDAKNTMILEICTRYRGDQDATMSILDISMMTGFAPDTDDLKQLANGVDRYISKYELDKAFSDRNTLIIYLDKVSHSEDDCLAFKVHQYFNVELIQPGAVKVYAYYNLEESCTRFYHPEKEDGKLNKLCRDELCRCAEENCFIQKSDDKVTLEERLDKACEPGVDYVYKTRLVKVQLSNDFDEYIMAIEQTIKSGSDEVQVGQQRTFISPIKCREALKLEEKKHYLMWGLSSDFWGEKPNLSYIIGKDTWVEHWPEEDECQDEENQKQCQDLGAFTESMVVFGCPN

Results are given in words; binding and its absence hold for the method and conditions named. In cells and extracts the contact can be indirect. Some entries that bind do so weakly or less than the wild type. Sequences can lack the tags named with a protein.

As for “Complement C3, human, from serum (from UniProt P01024)”, the binding result is “binds”.
